Measured values as given in patent publication US20150157610A1, “PHARMACEUTICAL COMPOSITION FOR TREATING INFLAMMATORY DISEASE” (OSAKA UNIVERSITY, priority 2012, published 2015).
At least one compound was matched to its structure with a doubt left.

Assays:
[1] = system: fulminant myocarditis model rats; assay: Left ventricular end-diastolic pressure in fulminant myocarditis model rats; format: in vivo, Lewis rats; details: for improvement in the left ventricular end-diastolic pressure: measured at 21 days
fulminant myocarditis = details: experimental, Non Patent Literature 2 and 3; cited from earlier work
Takayasu's arteritis = details: case report, Non Patent Literature 5; cited from earlier work

C=CC[C@@H]1/C=C(\C)C[C@H](C)C[C@H](OC)[C@H]2O[C@@](O)(C(=O)C(=O)N3CCCC[C@H]3C(=O)O[C@H](/C(C)=C/[C@@H]3CC[C@@H](O)[C@H](OC)C3)[C@H](C)[C@@H](O)CC1=O)[C@H](C)C[C@@H]2OC [free-FK506, FK506]
degree of the improvement in left ventricular end-diastolic pressure compared with low-dose lipo-FK506 (0.01 mg/rat) ([1]; high dose 0.05 mg/rat): comparable
improvement in the left ventricular end-diastolic pressure ([1]; high dose 0.05 mg/rat in terms of FK506, tail vein at 14 and 17 days after myosin injection): significantly improved
improvement in the left ventricular end-diastolic pressure ([1]; low dose 0.01 mg/rat in terms of FK506, tail vein at 14 and 17 days after myosin injection): did not result in improvement
degree of the improvement in left ventricular end-diastolic pressure compared with low-dose lipo-FK506 (0.01 mg/rat) ([1]; medium dose 0.02 mg/rat): inferior
improvement in the left ventricular end-diastolic pressure ([1]; medium dose 0.02 mg/rat in terms of FK506, tail vein at 14 and 17 days after myosin injection): significantly improved
efficacy against fulminant myocarditis (fulminant myocarditis): experimentally effective
efficacy against Takayasu's arteritis (Takayasu's arteritis): proven effective
